Results on ten molecules are retold here after patent US20250277029A1, “CANNABINOID TYPE 1 RECEPTOR BINDING PROTEINS AND USES THEREOF” (AMGEN INC., priority 2022, published 2025).

Residue numbers refer to the chain shown, from its start. These are yes or no findings as the source states them, for the method shown. Some entries that bind do so weakly or less than the wild type.

First the molecules themselves.
B1: LIBC673952-1 (Fab, V domains shown)
VH: QVQLQESGPGLVKPSQTLSLTCTVSGGSIRRGGDYWSWIRQHPGKGLEWIGHVYYTGQTTYNPSFRGRVTISVNTYKNQFSLKLSSVTAADTAVYYCARDYDILTGYSYYYYGLDVWGQGTTVTVSS
VL: DIVMTQSPLSLPVTPGEPASISCRSSQSLLHRSGYNYLDWYLQKPGQSPQLLIYQGSNRASGVPDRFSGSGSGTDFTLKISRVEAEDVGVYYCRQARALPRTFGQGTKVEIKR
B2: LIBC674200-1 (Fab, V domains shown)
VH: QVQLQESGPGLVKPSQTLSLTCTVSGGSIRRGGDYWSWIRQHPGKGLEWIGHVYYTGQTAYNPNFRNRVRISVNTYKNQFSLKLSSVTAADTAVYYCARGYDVSGYSYYYYGMDVWGQGTTVTVSS
VL: B1 VL with Q55L, D65G, R94M, A96S, R97L, A98Q, L99T
B3: LIBC674229-1 (Fab, V domains shown)
VH: B2 VH with V53I, Y55Q, A60K, N64S, R66K, N67G
VL: B1 VL with R94M, A96S, R97L, A98Q, L99T
B4: LIBC674090-1 (Fab, V domains shown)
VH: B2 VH with V53I, T56A, Q58S, N67G, V103T, M113L
VL: B1 VL with R94M, A96S, R97L, A98Q, L99T
B5: LIBC680562-1 (Fab, V domains shown)
VH: QVQLQESGPGLVKPSQTLSLTCTVSGGSIRRGGDYWAWIRQHPGKGLEWIGHIYQTGSTNYNPRFKGRATISVNTYKNQFSLKLSSVTAADTAVYYCARNYDTLTGYSYYYYGMDVWGQGTTVTVSS
VL: DIQMTQSPSSLSASVGDRVTITCRASQSISSYLNWYQQKPGKAPKLLIYSARRLSSGVPSRFSGSGSGTDFTLTISSLQPEDFATYYCQQYAKSPITFGGGTKVEIKR
B6: LIBC680800-1 (Fab, V domains shown)
VH: B5 VH
VL: B5 VL with R53A, A92R, S94F, I96L
B7: LIBC681594-1 (Fab, V domains shown)
VH: B5 VH
VL: B5 VL with S50K, R53K, Y91F, A92G, K93S, S94M, I96L
B8: LIBC680574-1 (Fab, V domains shown)
VH: B5 VH with I53V, Q55Y, N60K, R64S, G67D
VL: B5 VL with S50G, S55G, A92S, K93S, S94L, I96V
B9: LIBC681593-1 (Fab, V domains shown)
VH: B5 VH
VL: B5 VL with S50N, S55G, A92R, K93S, I96V
B10: LIBC680812-1 (Fab, V domains shown)
VH: B5 VH with A37G, I53V, N60K, R64S, G67D
VL: B5 VL with A92R, K93S, S94Y

The target in this assay is GFP-fused huCB1-SMALP (human CB1 in styrene maleic acid lipoparticles) (human) (UniProt P21554). Kind of assay: flow cytometry, yeast-displayed Fab.
In the case of B1, the binding entry is listed as “binds”.

B2: the binding entry was “binds”.

As to B3, the binding entry is “binds”.

Consider B4, for which the binding entry is “binds”.

For the molecule B5, the binding entry is given as “binds”.

Consider B6, for which the binding entry was “binds”.

With B7, the binding result is “binds”.

Turning to B8, the binding result was “binds”.

Regarding B9, the binding entry was “binds”.

On to B10, for which the binding entry is recorded as “binds”.
